Laboratory results reported in the supplement of paper PMC10849652.
This is one part of the list. Residues, ends and D or L forms follow the SMILES beside them. *: point of attachment. Cbz = O=C(OCc1ccccc1)*

Amino acid sequences for entries named in this document (tags omitted). A change or cut given only in a name is not applied to a line headed by its entry.
UniProt Q6PHR2: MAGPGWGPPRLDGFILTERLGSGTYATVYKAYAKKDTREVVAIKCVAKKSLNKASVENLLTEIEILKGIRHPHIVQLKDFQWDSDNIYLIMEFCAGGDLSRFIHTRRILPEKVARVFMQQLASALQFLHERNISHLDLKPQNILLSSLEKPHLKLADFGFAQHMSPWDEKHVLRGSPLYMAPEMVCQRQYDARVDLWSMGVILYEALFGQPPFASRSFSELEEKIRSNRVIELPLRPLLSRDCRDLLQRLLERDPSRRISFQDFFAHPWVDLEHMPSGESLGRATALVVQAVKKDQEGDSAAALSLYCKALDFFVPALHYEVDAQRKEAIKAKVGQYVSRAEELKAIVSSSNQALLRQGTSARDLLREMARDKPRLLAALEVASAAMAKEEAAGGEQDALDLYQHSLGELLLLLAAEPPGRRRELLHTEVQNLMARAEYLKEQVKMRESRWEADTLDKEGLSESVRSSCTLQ
UniProt O00124: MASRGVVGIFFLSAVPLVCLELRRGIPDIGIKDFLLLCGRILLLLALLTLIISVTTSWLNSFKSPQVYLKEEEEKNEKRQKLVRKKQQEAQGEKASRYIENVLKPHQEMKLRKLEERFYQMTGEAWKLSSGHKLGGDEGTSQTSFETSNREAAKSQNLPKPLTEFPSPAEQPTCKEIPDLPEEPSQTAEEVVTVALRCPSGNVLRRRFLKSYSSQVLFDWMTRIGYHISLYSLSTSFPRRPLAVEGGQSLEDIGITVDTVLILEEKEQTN
UniProt O14957: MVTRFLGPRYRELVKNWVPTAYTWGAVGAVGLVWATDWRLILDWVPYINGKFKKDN
UniProt Q16831: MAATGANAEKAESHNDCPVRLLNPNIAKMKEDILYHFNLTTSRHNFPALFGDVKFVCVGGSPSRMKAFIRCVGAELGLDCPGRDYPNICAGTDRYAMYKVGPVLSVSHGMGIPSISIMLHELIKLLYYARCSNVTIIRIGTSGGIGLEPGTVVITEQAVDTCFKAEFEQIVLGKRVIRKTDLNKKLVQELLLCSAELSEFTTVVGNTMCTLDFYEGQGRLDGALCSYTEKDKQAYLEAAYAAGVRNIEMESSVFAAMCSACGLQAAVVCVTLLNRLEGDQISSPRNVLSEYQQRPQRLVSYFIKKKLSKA
UniProt Q6ZU65, whole entry, looked up: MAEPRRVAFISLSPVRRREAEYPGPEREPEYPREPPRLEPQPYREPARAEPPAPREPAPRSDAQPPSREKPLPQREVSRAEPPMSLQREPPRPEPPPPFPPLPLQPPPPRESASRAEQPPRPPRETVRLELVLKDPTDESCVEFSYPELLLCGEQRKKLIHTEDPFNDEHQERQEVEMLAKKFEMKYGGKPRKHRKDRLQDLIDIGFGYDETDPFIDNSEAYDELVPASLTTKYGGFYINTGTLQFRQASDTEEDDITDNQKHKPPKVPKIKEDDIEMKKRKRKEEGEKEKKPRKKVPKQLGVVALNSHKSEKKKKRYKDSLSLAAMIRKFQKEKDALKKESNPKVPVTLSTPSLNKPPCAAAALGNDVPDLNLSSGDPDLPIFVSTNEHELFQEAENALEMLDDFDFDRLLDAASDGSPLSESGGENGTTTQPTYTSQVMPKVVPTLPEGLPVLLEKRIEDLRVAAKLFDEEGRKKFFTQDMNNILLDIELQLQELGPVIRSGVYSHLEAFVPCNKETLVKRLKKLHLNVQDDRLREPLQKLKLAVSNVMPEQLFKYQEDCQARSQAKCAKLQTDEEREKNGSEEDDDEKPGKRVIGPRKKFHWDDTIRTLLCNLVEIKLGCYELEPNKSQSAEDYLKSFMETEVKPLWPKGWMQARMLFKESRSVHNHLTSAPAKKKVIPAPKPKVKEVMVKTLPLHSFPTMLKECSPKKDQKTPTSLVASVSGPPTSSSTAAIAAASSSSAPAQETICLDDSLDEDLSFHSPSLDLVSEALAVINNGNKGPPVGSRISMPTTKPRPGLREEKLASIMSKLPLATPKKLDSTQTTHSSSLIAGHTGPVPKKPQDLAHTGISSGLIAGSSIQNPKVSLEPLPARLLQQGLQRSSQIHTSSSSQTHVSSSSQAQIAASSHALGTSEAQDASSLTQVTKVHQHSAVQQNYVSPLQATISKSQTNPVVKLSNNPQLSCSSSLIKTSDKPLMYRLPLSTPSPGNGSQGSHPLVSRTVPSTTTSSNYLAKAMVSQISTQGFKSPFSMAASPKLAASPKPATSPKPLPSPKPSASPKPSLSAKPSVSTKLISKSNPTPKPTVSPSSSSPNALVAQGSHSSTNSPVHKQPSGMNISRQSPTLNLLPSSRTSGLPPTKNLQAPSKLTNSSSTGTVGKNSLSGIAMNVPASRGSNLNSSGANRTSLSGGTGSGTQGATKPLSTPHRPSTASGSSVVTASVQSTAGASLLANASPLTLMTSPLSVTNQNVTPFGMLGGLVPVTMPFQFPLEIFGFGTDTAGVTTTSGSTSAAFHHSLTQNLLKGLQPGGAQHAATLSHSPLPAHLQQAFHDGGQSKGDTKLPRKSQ
UniProt Q8NFA0: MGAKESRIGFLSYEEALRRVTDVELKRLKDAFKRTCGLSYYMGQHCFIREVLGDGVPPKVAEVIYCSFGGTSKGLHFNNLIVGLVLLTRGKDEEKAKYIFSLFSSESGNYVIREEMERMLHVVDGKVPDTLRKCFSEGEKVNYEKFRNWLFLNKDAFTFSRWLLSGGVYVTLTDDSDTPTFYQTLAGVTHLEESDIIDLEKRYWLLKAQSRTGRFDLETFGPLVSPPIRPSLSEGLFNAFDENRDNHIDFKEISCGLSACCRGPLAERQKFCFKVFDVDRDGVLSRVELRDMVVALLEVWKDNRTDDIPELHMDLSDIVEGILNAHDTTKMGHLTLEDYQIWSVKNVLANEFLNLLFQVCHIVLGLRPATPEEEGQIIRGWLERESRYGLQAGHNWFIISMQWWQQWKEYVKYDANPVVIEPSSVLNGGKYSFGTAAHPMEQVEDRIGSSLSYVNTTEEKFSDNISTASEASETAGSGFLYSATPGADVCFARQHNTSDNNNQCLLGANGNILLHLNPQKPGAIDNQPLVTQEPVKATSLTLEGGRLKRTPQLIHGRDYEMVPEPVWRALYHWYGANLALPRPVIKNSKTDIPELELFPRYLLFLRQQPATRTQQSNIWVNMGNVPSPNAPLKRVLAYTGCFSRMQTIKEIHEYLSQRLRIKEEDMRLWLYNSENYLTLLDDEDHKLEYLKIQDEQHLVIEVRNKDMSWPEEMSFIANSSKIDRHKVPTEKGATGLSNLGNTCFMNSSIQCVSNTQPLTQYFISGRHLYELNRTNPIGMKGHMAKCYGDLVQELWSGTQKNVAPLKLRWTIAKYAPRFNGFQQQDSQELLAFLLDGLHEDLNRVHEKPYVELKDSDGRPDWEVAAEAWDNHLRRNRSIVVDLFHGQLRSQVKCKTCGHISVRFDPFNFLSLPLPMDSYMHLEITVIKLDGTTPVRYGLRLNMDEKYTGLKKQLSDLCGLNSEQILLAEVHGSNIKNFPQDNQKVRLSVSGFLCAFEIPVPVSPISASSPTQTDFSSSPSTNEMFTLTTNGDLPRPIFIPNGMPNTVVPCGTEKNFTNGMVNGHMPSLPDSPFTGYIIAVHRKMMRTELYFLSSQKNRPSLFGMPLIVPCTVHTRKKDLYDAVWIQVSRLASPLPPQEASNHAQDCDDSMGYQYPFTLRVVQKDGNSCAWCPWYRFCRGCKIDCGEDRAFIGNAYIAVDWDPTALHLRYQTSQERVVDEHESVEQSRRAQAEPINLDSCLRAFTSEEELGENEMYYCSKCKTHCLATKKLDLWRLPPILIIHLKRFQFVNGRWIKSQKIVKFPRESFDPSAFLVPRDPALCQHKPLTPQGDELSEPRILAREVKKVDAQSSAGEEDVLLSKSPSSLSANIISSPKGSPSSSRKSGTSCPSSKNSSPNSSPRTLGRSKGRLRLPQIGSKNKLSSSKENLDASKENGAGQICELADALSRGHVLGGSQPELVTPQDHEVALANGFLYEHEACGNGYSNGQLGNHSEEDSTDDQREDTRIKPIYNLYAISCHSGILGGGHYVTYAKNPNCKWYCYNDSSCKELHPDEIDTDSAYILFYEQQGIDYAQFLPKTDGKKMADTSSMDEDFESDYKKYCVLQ
UniProt P15498: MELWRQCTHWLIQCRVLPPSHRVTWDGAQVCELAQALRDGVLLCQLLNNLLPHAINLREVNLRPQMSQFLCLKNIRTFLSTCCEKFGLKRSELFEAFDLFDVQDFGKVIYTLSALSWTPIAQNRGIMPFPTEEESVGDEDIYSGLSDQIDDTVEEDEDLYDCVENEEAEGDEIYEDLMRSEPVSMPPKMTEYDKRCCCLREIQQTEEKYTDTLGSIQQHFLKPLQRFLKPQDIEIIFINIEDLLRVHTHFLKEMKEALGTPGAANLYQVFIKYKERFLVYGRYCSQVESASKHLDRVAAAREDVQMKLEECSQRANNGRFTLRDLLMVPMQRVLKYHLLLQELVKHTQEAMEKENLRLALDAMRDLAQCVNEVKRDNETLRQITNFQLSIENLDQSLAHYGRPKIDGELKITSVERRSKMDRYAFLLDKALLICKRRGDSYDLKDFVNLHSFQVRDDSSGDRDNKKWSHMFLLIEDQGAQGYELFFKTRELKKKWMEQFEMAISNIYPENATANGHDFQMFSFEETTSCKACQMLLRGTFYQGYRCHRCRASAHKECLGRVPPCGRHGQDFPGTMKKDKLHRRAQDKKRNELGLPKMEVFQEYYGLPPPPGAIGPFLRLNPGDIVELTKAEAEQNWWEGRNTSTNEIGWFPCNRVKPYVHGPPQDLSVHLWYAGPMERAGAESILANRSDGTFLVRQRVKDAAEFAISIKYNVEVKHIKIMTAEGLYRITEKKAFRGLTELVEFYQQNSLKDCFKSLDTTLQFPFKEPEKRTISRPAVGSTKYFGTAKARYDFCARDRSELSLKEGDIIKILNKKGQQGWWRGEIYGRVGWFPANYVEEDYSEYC
UniProt Q86UV5: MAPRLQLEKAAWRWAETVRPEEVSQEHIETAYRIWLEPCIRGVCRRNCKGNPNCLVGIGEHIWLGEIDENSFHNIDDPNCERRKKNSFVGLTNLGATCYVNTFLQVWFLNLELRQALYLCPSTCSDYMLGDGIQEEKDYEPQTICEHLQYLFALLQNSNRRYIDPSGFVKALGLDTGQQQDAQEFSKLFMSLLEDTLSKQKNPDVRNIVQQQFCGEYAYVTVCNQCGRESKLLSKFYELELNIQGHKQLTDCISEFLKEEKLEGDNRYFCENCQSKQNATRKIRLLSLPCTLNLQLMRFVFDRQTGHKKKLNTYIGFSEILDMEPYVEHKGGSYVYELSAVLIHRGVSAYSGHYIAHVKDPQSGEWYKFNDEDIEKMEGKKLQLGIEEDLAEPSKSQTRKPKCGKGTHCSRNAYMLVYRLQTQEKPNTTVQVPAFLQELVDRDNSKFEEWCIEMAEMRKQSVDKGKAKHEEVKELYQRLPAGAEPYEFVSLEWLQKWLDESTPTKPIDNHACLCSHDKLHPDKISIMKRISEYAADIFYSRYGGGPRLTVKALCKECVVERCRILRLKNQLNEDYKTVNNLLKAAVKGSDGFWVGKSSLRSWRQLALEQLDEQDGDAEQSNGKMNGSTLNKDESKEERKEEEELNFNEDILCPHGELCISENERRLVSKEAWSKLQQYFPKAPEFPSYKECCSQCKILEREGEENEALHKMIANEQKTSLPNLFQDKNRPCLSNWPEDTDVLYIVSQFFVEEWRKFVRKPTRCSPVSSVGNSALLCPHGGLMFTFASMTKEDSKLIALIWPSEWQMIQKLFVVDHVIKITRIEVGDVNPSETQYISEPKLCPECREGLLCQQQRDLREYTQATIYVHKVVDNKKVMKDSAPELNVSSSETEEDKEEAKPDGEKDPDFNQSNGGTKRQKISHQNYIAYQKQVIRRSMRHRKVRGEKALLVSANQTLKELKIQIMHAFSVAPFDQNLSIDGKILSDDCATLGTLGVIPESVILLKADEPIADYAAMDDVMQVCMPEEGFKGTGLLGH
UniProt Q9UMX0, whole entry, looked up: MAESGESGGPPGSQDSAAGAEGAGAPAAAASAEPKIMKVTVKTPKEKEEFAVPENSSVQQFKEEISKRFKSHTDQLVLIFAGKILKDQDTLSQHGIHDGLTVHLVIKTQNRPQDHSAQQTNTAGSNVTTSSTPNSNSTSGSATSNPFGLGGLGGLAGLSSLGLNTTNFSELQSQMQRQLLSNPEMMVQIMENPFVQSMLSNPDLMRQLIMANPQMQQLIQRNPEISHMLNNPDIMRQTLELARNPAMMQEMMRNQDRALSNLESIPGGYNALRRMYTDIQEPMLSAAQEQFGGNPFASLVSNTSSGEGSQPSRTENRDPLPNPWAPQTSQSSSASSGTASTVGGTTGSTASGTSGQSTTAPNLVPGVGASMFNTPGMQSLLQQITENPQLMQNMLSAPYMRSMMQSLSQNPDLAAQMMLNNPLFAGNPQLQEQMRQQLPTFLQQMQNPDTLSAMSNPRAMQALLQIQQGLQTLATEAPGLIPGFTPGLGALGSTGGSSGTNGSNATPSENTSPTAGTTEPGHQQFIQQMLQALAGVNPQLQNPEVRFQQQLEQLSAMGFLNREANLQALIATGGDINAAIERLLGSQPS

Experiments:
Test in all cases: log2 fold change, soluble protein after heating vs DMSO (PISA); higher = thermal stabilisation; K562 cells, 10 uM, 30 min; active = over 0.2 and 3.5 SD of the protein, either way, in both replicates (recomputed)
IRAK-1-4 Inhibitor I = compound: C1COCCN1CCN2C3=CC=CC=C3N=C2NC(=O)C4=CC(=CC=C4)[N+](=O)[O-] [IRAK-1-4 Inhibitor I]
Summary of the method: (§1)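 K562 cells at 2×10^6 cells/mL were treated with 10 μM compound for 30 min. Aliquots were heated for 3 min across 48°C-58°C, pooled, and extracted in PBS with 0.5% NP-40 at 4°C; soluble protein was the supernatant after 21,000xg for 90 min. Soluble protein was quantified by TMTpro 16plex LC-MS/MS with channel sums equalised, and reported as log2 fold change in thermal stability against DMSO controls, with values from duplicates.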

pinometostat = compound: CC(C)N(C[C@H]1O[C@@H](n2cnc3c(N)ncnc32)[C@H](O)[C@@H]1O)[C@H]1C[C@@H](CCc2nc3cc(C(C)(C)C)ccc3[nH]2)C1 [pinometostat]
Summary of the method: as §1

[1] = compound: CC(C)(O)CC(=O)NCCn1ccc2ncnc(Nc3ccc(Oc4cccc(C(F)(F)F)c4)c(Cl)c3)c21
Summary of the method: as §1

[2] = compound: CC(C)C1=C2N=C(C=C(N2N=C1)NCC3=CC=CC=C3)NCCCCCCN
Summary of the method: as §1

ibrutinib = compound: C=CC(=O)N1CCC[C@@H](n2nc(-c3ccc(Oc4ccccc4)cc3)c3c(N)ncnc32)C1 [ibrutinib]
Summary of the method: as §1

[3] = compound: CC1=C(C2=C(C=C1)C(=O)C3=CC=CC=C3N2CCCN)C
Summary of the method: as §1

ralimetinib = compound: CC(C)(C)Cn1c(N)nc2ccc(-c3[nH]c(C(C)(C)C)nc3-c3ccc(F)cc3)nc21 [ralimetinib]
Summary of the method: as §1

[4] = compound: CC(C)C[C@@H](C=O)NC(=O)[C@H](CC(C)C)NC(=O)[C@H](CC(C)C)NC(=O)OCc1ccccc1
Summary of the method: as §1

[5] = compound: CC(=O)c1cnc2ccc(-c3cc(Cl)c(O)c(Cl)c3)nc2c1N[C@H]1CC[C@H](CN(C)C)CC1
Summary of the method: as §1

[6] = compound: CC1=C(C(CC(=O)N1)C2=CC=C(C=C2)C(F)(F)F)C(=O)NC3=C(C=C4C(=C3)C=NN4)F
Summary of the method: as §1

Measured: log2 fold change

USP4 (UniProt Q13107)
inactive: IRAK-1-4 Inhibitor I -0.314 | pinometostat 0.611

UPF3A (UniProt Q9H1J1)
inactive: IRAK-1-4 Inhibitor I -0.155 | [1] 0.12 | [2] 0.115 | pinometostat 0.199

UBR3 isoform 4 (UniProt Q6ZT12)
inactive: IRAK-1-4 Inhibitor I 0.071 | ibrutinib -0.046 | [1] -0.287 | [2] -0.209 | pinometostat 0.182 | [3] -0.086

ULK3 isoform 4 (UniProt Q6PHR2)
inactive: IRAK-1-4 Inhibitor I -0.024 | ibrutinib -0.037 | ralimetinib 0.016 | [1] -0.167 | [4] 0.09 | pinometostat 0.129

USP11 (UniProt P51784)
inactive: ralimetinib 0.167 | [1] 0.285 | [4] -0.032

ULBP1 (UniProt Q9BZM6)
inactive: [5] -0.038 | ralimetinib -0.058 | [1] -0.132 | [2] 0.112 | [4] 0.006 | [3] 0.009

UBXN8 (UniProt O00124)
inactive: ibrutinib 0.077 | [5] 0.039 | ralimetinib 0.211 | [1] 0.138 | [4] -0.227 | [3] 0.259

UFSP1 (UniProt Q6NVU6)
inactive: [2] 0.083

USP12 (UniProt O75317)
inactive: [5] -0.215 | ralimetinib 0.029 | [4] 0.004 | [3] 0.182

USP6NL isoform 2 (UniProt Q92738)
inactive: IRAK-1-4 Inhibitor I -0.464 | [5] -0.429 | ralimetinib 0.006 | [1] -0.105 | [2] -0.122 | [4] 0.064 | pinometostat -0.064 | [6] 0.118 | [3] 0.163

USB1 (UniProt Q9BQ65)
inactive: [2] -0.061 | [3] -0.103

UQCR11 (UniProt O14957)
inactive: IRAK-1-4 Inhibitor I 0.14 | [5] -0.102 | ralimetinib -0.081 | [2] 0.029 | [4] -0.101 | pinometostat 0.006 | [6] -0.222

VASN (UniProt Q6EMK4)
inactive: ibrutinib 0.479 | [1] 0.07 | [2] -0.225

UBP1 (UniProt Q9NZI7)
inactive: IRAK-1-4 Inhibitor I 0.206 | ibrutinib 0.056 | ralimetinib 0.084 | [1] 0.147 | [4] 0.079 | pinometostat 0.042 | [6] 0.01 | [3] 0.005

USF3 (UniProt Q68DE3)
inactive: IRAK-1-4 Inhibitor I 0.115 | ibrutinib 0.075 | ralimetinib 0.263 | [1] 0.078 | [4] -0.043 | pinometostat 0.153

ULBP2 (UniProt Q9BZM5)
inactive: ralimetinib -0.003 | [1] 0.224 | [4] 0.116 | [6] -0.019 | [3] 0.038

UFM1 isoform 2 (UniProt P61960)
inactive: ibrutinib 0.025 | [5] 0.052 | [1] 0.018 | [2] -0.013 | [3] 0.035

UHRF1 isoform 2 (UniProt Q96T88)
inactive: [2] -0.191 | [3] -0.28

UPP1 (UniProt Q16831)
inactive: IRAK-1-4 Inhibitor I -0.562 | pinometostat 0.191 | [3] 0.005

UTP14C (UniProt Q5TAP6)
inactive: IRAK-1-4 Inhibitor I 0.002 | [1] -0.14 | [2] 0.028 | pinometostat -0.057

USP27X (UniProt A6NNY8)
inactive: [5] 0.057 | ralimetinib 0.092 | [1] -0.125 | [4] 0.063 | [3] 0.035

UTP20 (UniProt O75691)
inactive: [1] -0.172 | [2] 0.081 | [3] 0

UTP23 (UniProt Q9BRU9)
inactive: [6] 0.153

UBQLN3 (UniProt Q9H347)
inactive: IRAK-1-4 Inhibitor I 0.064 | [5] -0.064 | ralimetinib -0.059 | [1] -0.047 | [2] 0.148 | [4] -0.09 | pinometostat -0.082 | [6] -0.104 | [3] 0.116

UBR1 (UniProt Q8IWV7)
inactive: ibrutinib -0.12 | [5] 0.072 | [1] 0.023 | [2] 0.086 | [6] -0.175

UBN2 (UniProt Q6ZU65)
inactive: IRAK-1-4 Inhibitor I 0.03 | pinometostat -0.137 | [6] -0.034

USP32 (UniProt Q8NFA0)
inactive: IRAK-1-4 Inhibitor I -0.13 | [5] -0.057 | ralimetinib -0.06 | [1] -0.085 | [2] 0.201 | [4] 0.129 | pinometostat 0.017 | [6] -0.005 | [3] 0.04

USP33 (UniProt Q8TEY7)
inactive: [5] 0.063 | ralimetinib -0.031 | [2] -0.133 | [4] 0.024 | [3] -0.027

VAV1 (UniProt P15498)
inactive: [5] -0.162 | ralimetinib 0.081 | [1] -0.023 | [2] -0.25 | [4] -0.062 | [3] -0.195

USP48 (UniProt Q86UV5)
inactive: ibrutinib -0.07 | [2] -0.246

UNC5B (UniProt Q8IZJ1)
inactive: [1] 0.019 | [3] 0.243

USP54 (UniProt Q70EL1)
inactive: ibrutinib -0.089 | [2] -0.134 | [3] 0.057

UMAD1 (UniProt C9J7I0)
inactive: IRAK-1-4 Inhibitor I 0.067 | ibrutinib 0.058 | ralimetinib -0.116 | [2] -0.047 | [4] -0.249 | pinometostat -0.115 | [6] 0.047 | [3] 0.334

VCPIP1 (UniProt Q96JH7)
inactive: [1] 0.21 | [2] -0.752

UBQLN1 isoform 2 (UniProt Q9UMX0)
inactive: [2] 0.166

UNG (UniProt P13051)
inactive: ibrutinib 0.073 | [5] -0.154 | [1] 0.035 | [2] -0.026 | [3] -0.048

UNC13A (UniProt Q9UPW8)
inactive: ibrutinib 0.01 | [2] 0.021 | [3] 0.035

UQCC3 (UniProt Q6UW78)
inactive: ibrutinib -0.003 | [1] -0.079 | [6] 0.078

USP46 (UniProt P62068)
inactive: IRAK-1-4 Inhibitor I -0.066 | [1] -0.039 | [2] -0.052 | pinometostat 0.062
